These are yes or no findings as the source states them, for the method shown. In cells and extracts the contact can be indirect. Some binding calls cover weakened binding; strength is not graded here.

Chains of the proteins cited; added tags and fusions are not shown. Residues count along the entry.
UniProt P10275: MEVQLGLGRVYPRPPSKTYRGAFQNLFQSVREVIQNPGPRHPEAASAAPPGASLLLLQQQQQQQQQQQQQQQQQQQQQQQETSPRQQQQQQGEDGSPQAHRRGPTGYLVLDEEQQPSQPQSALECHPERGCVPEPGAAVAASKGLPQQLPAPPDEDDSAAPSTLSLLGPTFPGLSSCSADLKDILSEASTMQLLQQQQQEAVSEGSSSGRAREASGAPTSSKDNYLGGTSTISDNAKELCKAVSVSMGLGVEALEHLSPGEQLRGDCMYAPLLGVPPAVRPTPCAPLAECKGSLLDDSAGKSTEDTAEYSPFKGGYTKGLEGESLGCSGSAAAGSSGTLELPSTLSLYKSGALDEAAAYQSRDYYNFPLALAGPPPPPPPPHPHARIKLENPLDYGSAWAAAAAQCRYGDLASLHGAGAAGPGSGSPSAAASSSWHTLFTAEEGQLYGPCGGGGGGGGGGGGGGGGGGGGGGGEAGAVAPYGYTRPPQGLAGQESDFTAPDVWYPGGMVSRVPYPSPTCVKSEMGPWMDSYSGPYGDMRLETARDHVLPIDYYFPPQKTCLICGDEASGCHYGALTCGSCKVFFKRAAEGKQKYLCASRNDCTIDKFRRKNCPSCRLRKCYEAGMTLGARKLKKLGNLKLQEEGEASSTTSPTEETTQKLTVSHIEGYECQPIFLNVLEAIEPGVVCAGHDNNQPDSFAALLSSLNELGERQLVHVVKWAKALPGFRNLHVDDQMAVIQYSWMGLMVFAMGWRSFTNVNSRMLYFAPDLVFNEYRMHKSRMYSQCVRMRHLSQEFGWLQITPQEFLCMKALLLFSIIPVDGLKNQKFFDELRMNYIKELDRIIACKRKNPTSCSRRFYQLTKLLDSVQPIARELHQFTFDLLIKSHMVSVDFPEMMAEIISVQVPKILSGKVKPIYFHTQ
UniProt P29317, residues 24-976: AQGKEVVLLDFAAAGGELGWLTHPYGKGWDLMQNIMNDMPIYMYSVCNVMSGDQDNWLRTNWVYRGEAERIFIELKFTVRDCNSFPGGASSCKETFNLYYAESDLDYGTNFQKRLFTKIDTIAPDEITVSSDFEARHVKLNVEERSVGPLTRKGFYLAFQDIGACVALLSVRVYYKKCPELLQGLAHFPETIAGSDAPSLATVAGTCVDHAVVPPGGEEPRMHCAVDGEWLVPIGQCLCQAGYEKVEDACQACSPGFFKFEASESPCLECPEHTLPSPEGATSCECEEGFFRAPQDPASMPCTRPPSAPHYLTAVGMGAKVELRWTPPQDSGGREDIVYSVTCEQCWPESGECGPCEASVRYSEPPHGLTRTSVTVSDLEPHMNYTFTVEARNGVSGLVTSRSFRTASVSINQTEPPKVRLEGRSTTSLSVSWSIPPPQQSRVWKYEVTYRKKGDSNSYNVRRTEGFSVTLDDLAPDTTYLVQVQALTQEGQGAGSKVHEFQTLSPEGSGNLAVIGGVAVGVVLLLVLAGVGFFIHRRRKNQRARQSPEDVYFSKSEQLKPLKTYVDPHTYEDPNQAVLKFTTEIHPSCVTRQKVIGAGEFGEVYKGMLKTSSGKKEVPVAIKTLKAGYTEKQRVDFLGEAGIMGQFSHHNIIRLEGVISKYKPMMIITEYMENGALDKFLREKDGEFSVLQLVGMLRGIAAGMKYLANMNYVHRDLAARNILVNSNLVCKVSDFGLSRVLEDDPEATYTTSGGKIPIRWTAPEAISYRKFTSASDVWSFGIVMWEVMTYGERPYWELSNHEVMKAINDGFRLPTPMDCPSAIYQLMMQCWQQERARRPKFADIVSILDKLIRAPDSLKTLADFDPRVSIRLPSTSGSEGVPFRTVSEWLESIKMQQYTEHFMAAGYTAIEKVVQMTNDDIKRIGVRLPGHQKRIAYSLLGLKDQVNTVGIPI

In this assay the target is androgen receptor (AR), endogenous in SLK cells (human (endogenous in SLK)) (UniProt P10275). Briefly: co-IP; endogenous proteins; SLK cells serum-starved 6 h, uninfected or KSHV-infected for the indicated times; lysate in RIPA buffer precipitated with an anti-AR antibody, western blotting. A general note: Immunoblotting shows a protein as a band on a membrane.

Turning to “EphA2 phosphorylated at Ser897, endogenous in KSHV-infected SLK cells (from UniProt P29317 24-976) (receptor)”, the binding result is reported as “binds”. The result for “ephrin receptor A2 (EphA2), endogenous in SLK cells (from UniProt P29317 24-976)” reads “binds”.

For the origin of these results see PMC5619820.
